Experimental data published in paper PMC5534435, “The Amyloid Precursor Protein Is a Conserved Receptor for Slit to Mediate Axon Guidance” (eNeuro, 2017).
Results are given in words; binding and its absence hold for the method and conditions named. In cells and extracts the contact can be indirect. Binding calls can cover weak binding; strength is not graded here. Tags and fused reporters may be left off the sequences shown.

B1: FL Slit2 fused N terminally to the human alkaline phosphatase sequence (ligand, UniProt O94813 31-1529, looked up)
chain: QCSCSGSTVDCHGLALRSVPRNIPRNTERLDLNGNNITRITKTDFAGLRHLRVLQLMENKISTIERGAFQDLKELERLRLNRNHLQLFPELLFLGTAKLYRLDLSENQIQAIPRKAFRGAVDIKNLQLDYNQISCIEDGAFRALRDLEVLTLNNNNITRLSVASFNHMPKLRTFRLHSNNLYCDCHLAWLSDWLRQRPRVGLYTQCMGPSHLRGHNVAEVQKREFVCSGHQSFMAPSCSVLHCPAACTCSNNIVDCRGKGLTEIPTNLPETITEIRLEQNTIKVIPPGAFSPYKKLRRIDLSNNQISELAPDAFQGLRSLNSLVLYGNKITELPKSLFEGLFSLQLLLLNANKINCLRVDAFQDLHNLNLLSLYDNKLQTIAKGTFSPLRAIQTMHLAQNPFICDCHLKWLADYLHTNPIETSGARCTSPRRLANKRIGQIKSKKFRCSAKEQYFIPGTEDYRSKLSGDCFADLACPEKCRCEGTTVDCSNQKLNKIPEHIPQYTAELRLNNNEFTVLEATGIFKKLPQLRKINFSNNKITDIEEGAFEGASGVNEILLTSNRLENVQHKMFKGLESLKTLMLRSNRITCVGNDSFIGLSSVRLLSLYDNQITTVAPGAFDTLHSLSTLNLLANPFNCNCYLAWLGEWLRKKRIVTGNPRCQKPYFLKEIPIQDVAIQDFTCDDGNDDNSCSPLSRCPTECTCLDTVVRCSNKGLKVLPKGIPRDVTELYLDGNQFTLVPKELSNYKHLTLIDLSNNRISTLSNQSFSNMTQLLTLILSYNRLRCIPPRTFDGLKSLRLLSLHGNDISVVPEGAFNDLSALSHLAIGANPLYCDCNMQWLSDWVKSEYKEPGIARCAGPGEMADKLLLTTPSKKFTCQGPVDVNILAKCNPCLSNPCKNDGTCNSDPVDFYRCTCPYGFKGQDCDVPIHACISNPCKHGGTCHLKEGEEDGFWCICADGFEGENCEVNVDDCEDNDCENNSTCVDGINNYTCLCPPEYTGELCEEKLDFCAQDLNPCQHDSKCILTPKGFKCDCTPGYVGEHCDIDFDDCQDNKCKNGAHCTDAVNGYTCICPEGYSGLFCEFSPPMVLPRTSPCDNFDCQNGAQCIVRINEPICQCLPGYQGEKCEKLVSVNFINKESYLQIPSAKVRPQTNITLQIATDEDSGILLYKGDKDHIAVELYRGRVRASYDTGSHPASAIYSVETINDGNFHIVELLALDQSLSLSVDGGNPKIITNLSKQSTLNFDSPLYVGGMPGKSNVASLRQAPGQNGTSFHGCIRNLYINSELQDFQKVPMQTGILPGCEPCHKKVCAHGTCQPSSQAGFTCECQEGWMGPLCDQRTNDPCLGNKCVHGTCLPINAFSYSCKCLEGHGGVLCDEEEDLFNPCQAIKCKHGKCRLSGLGQPYCECSSGYTGDSCDREISCRGERIRDYYQKQQGYAACQTTKKVSRLECRGGCAGGQCCGPLRSKRRKYSFECTDGSSFVDEVEKVVKCGCTRCVS
notes: Slit2, full length, put in place of Netrin 5 in the vector Ntn5.a-AP-His (Addgene); also called AP-tagged Slit2; alkaline phosphatase (AP)-tagged Slit2; source: HEK293T, transfected, in supernatant; not shown: alkaline phosphatase (human), C-terminal, kept

Assays:
[1] = molecular target: T1, Human Slit2 tagged with c-Myc (Slit2-Myc) (human) (UniProt O94813); assay: co-IP; HEK293 cells transfected with the two constructs (single transfections as controls); IP with APPc, anti-HA or anti-Myc antibody, Western blot
T1 sequence: B1 chain

APPΔE2 (human) = APPΔE2 (human) (UniProt P05067); assay: as above

| Molecule | binding [1] | binding (APPΔE2 (human)) |
| --- | --- | --- |
| APPΔC (human) (domain or fragment) | binds |  |
| B1 |  | binds |
